# Measurements published in the supplement of paper PMC4604168 (melanoma cell lines).
# Some of the results follow. Single values are uncertain, as repeats are few or missing.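 The apoptosis fraction was the count of cleaved-PARP antibody-stained nuclei relative to all DNA-stained nuclei, imaged in 1,536-well plates. Screening doses were set so most cells survived, and baseline and induced cleaved-PARP levels vary greatly across cell lines.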
# What was measured:
# Test in all cases: cleaved PARP positive nuclei fraction relative to DMSO control; melanoma cells; higher = more apoptosis
# Conditions in all cases: library dose: low library concentration; 72 h
# MZ2-MEL = test system: MZ2-MEL
# MeWo = test system: MeWo
# RPMI7951 = test system: RPMI7951
# RVH-421 = test system: RVH-421
# SkMel28 = test system: SkMel28
# SkMel2 = test system: SkMel2
# SkMel30 = test system: SkMel30
# SkMel5 = test system: SkMel5
# UACC257 = test system: UACC257
# UACC62 = test system: UACC62
# WM115 = test system: WM115
# WM1716 = test system: WM1716
# WM1745 = test system: WM1745
# WM3526 = test system: WM3526
# WM3619 = test system: WM3619
# WM451Lu = test system: WM451Lu
Compound,cleaved PARP positive nuclei fraction (MZ2-MEL) [%],cleaved PARP positive nuclei fraction (MeWo) [%],cleaved PARP positive nuclei fraction (RPMI7951) [%],cleaved PARP positive nuclei fraction (RVH-421) [%],cleaved PARP positive nuclei fraction (SkMel28) [%],cleaved PARP positive nuclei fraction (SkMel2) [%],cleaved PARP positive nuclei fraction (SkMel30) [%],cleaved PARP positive nuclei fraction (SkMel5) [%],cleaved PARP positive nuclei fraction (UACC257) [%],cleaved PARP positive nuclei fraction (UACC62) [%],cleaved PARP positive nuclei fraction (WM115) [%],cleaved PARP positive nuclei fraction (WM1716) [%],cleaved PARP positive nuclei fraction (WM1745) [%],cleaved PARP positive nuclei fraction (WM3526) [%],cleaved PARP positive nuclei fraction (WM3619) [%],cleaved PARP positive nuclei fraction (WM451Lu) [%]
"C[C@@H]1CCN(C(=O)CC#N)C[C@@H]1N(C)c1ncnc2[nH]ccc12 + COc1cc2c(Oc3ccc4[nH]c(C)cc4c3F)ncnc2cc1OCCCN1CCCC1 [cediranib] (first compound 1 µM, partner dose 0.4 µM)",145,88.9,73.1,57.4,31.9,103,90.1,33.1,257,273,33.6,28.3,120,792,96,240
"OCCn1cc(-c2cnc3nnn(Cc4ccc5ncccc5c4)c3n2)cn1 + O=C(Nc1cccc(Cl)c1)Nc1ncc(CCNc2ncnc3ccsc23)s1 [SNS314] (first compound 1 µM, partner dose 0.0008 µM)",106,85.9,133,222,87.6,128,62.2,128,71.9,100,66.4,41.4,78.3,244,107,72.4
"C[C@]1(c2nc3c(C(N)=O)cccc3[nH]2)CCCN1 [Veliparib] + CO[C@@H]1[C@H](N(C)C(=O)c2ccccc2)C[C@H]2O[C@]1(C)n1c3ccccc3c3c4c(c5c6ccccc6n2c5c31)C(=O)NC4 [Midostaurin] (first compound 1.4 µM, partner dose 0.08 µM)",247,63.3,211,108,32.2,278,61,68.5,66.1,131,229,295,108,59.9,95.2,54.2
"Nc1cccc2c1CN(C1CCC(=O)NC1=O)C2=O (centres undefined) [lenalidomide] + OCCn1cc(-c2cnc3nnn(Cc4ccc5ncccc5c4)c3n2)cn1 [PF04217903] (first compound 1 µM, partner dose 1 µM)",30.2,53.1,34.7,136,67.9,86.6,59.8,25,56,33.2,173,16.1,120,143,91.8,41.8
"CC1(C)NC(=O)N(c2ccc([N+](=O)[O-])c(C(F)(F)F)c2)C1=O [nilutamide] + OCCn1cc(-c2cnc3nnn(Cc4ccc5ncccc5c4)c3n2)cn1 [PF04217903] (first compound 1 µM, partner dose 1 µM)",62.8,94.6,80.9,125,101,100,55.6,129,55.6,59.5,105,112,105,65,88.1,52.9
"C#Cc1cccc(Nc2ncnc3cc(OCCOC)c(OCCOC)cc23)c1 [erlotinib] + Cc1cc(N2CCOCC2)cc2[nH]c(-c3c(NC[C@@H](O)c4cccc(Cl)c4)cc[nH]c3=O)nc12 [BMS536924] (first compound 0.8 µM, partner dose 0.2 µM)",184,116,98.3,77,130,108,269,260,125,60,87.7,46.6,166,85.3,84.6,200
"Clc1ccc(Nc2nnc(Cc3ccncc3)c3ccccc23)cc1 [vatalanib] + O=S(=O)(c1ccccc1)N(CC(F)(F)F)c1ccc(C(O)(C(F)(F)F)C(F)(F)F)cc1 [T0901317] (first compound 2 µM, partner dose 1.4 µM)",39.3,51.2,180,36.7,71.9,58.6,491,34.9,89.7,108,183,60.9,132,62,83.1,47.5
"CC(=O)c1c(C)c2cnc(Nc3ccc(N4CCNCC4)cn3)nc2n(C2CCCC2)c1=O [palbociclib] + CCCCCCCCCCCC1=C(O)C(=O)C=C(O)C1=O [Embelin] (first compound 0.04 µM, partner dose 1.2 µM)",156,101,47.5,153,442,30.2,112,119,64.9,82.6,68.4,82.5,145,105,138,159
"CC1(C)NC(=O)N(c2ccc([N+](=O)[O-])c(C(F)(F)F)c2)C1=O [nilutamide] + Cc1ccc(NC(=O)c2cccc(N(C)C)c2)cc1NC(=O)c1ccc(O)cc1 [ZM336372] (first compound 1 µM, partner dose 2 µM)",91.7,88.6,273,48.1,121,28.7,115,150,76.6,22.2,104,137,125,297,81.6,49.2
